No constants are given. Whether binding was seen depends on the method and setting. For part of these data: A result given as binding can be weak or reduced; the word gives no strength.
B1: glycosyltransferase RodA (enzyme, UniProt A0ABV4SE60 1-398)
chain: MAGTNGFSVSGYGPERSTLSRLMARDSVIRRLDWPILLSSLALSLIGSALVYSATRNRTVINQGDPYYFLFRHLMNTGIGLALMIGTIWLGHRTLRTVVPILYGASVFLMLLVLTPLGDTINGQRNWLSAGGVSLQPAEFAKITIILGMAMLLASRVDAGDKQYPDHRTVLQALGLAAVPMLVVLLMPDLGTIMVAVVIVLGVLLASGASNRWVFGLLGTGALGAVAVWKLGVLDEYQIARFAAFANPALDPAGVGYNTNQARIAIGSGGLTGTGLFHGSQTTGQFVPEQQTDFVFTVAGEELGFAGAGLILLLLAVVLWRACRIARETTELYGTIVAAGIIAWFAFQAFENIGMTLGIMPVAGLPLPFVSYGGSSMFAVWVAIGLLQSIRVQRPMSA
B2: glycosyltransferase FtsW (enzyme, UniProt A0ABV4SSA3 1-437)
chain: MPGSSARAARRPPAARPPKKPARAARVSPVRRLYTQARRAWDRPLTAYYLILGSSLLITVLGLVMVYSASMITALQNGLPSSYYFRKQFLAAAIGGALLFAAMRMPVKLHRALAYPLLAGSVFLMVLVQVPGIGVSIGGNQNWISLGGPFMLQPSEFGKLALVLWGADLMARKHDKRLLSQWKHMLVPLVPVAFLLLGLIMLGGDMGTAILLTAILFGLLWLAGAPTRLFVGVLSVAAAIGAFLIKTSPNRMARLSCLGSTDAGPDDICWQGLHGIYALASGGFFGSGLGASVEKWGQLPEAHTDFIFAVTGEELGLAGTLSVLALYAALGYAGIRVAGRTEDPFVRYAAGGVTTWITAQAVVNLGAVLGLLPIAGVPLPLFSYGGSALLPTMFAVGLLIAFARDEPAARAALAMRQPRMRWNTMRRRATARTSGER
B3: cell wall hydrolase LytH (enzyme, UniProt O32421 1-291)
chain: MKKIEAWLSKKGLKNKRTLIVVIAFVLFIIFLFLLLNSNSEDSGNITITENAELRTGPNAAYPVIYKVEKGDHFKKIGKVGKWIEVEDTSSNEKGWIAGWHTNLDIVADNTKEKNPLQGKTIVLDPGHGGSDQGASSNTKYKSLEKDYTLKTAKELQRTLEKEGATVKMTRTDDTYVSLENRDIKGDAYLSIHNDALESSNANGMTVYWYHDNQRALADTLDATIQKKGLLSNRGSRQENYQVLRQTKVPAVLLELGYISNPTDETMIKDQLHRQILEQAIVDGLKIYFSA
B4: cell wall hydrolase SsaA (enzyme, UniProt Q2FV55 1-255)
chain: MKKIVTATIATAGLATIAFAGHDAQAAEQNNNGYNSNDAQSYSYTYTIDAQGNYHYTWTGNWNPSQLTQNNTYYYNNYNTYSYNNASYNNYYNHSYQYNNYTNNSQTATNNYYTGGSGASYSTTSNNVHVTTTAAPSSNGRSISNGYASGSNLYTSGQCTYYVFDRVGGKIGSTWGNASNWANAAASSGYTVNNTPKVGAIMQTTQGYYGHVAYVEGVNSNGSVRVSEMNYGHGAGVVTSRTISANQAGSYNFIH

Molecular target: FemA (S. aureus NewmanHG)
Assay: two-hybrid; bacterial adenylate cyclase two-hybrid (T25 bait and T18 prey fusions) in cya mutant E. coli BTH101; spotted on X-gal indicator plates with 0.5 mM IPTG, 5 days at 18 °C; blue after 2 to 4 days = interaction, slight colour change after 5 days = weak; each combination tested at least three times

Binder	binding
B1	binds
B2	binds
B3	binds

Molecular target: FemB (S. aureus NewmanHG)
Assay: as above

Binder	binding
B1	binds
B2	binds
B3	binds

Molecular target: lipid II:glycine glycyltransferase FemX (S. aureus NewmanHG)
Assay: as above

Binder	binding
B1	binds weakly

Molecular target: phosphatase Stp (S. aureus NewmanHG)
Assay: as above

Binder	binding
B1	no binding
B2	no binding
B3	no binding
B4	no binding

Molecular target: serine/threonine kinase Stk (S. aureus NewmanHG)
Assay: as above

Binder	binding
B1	binds
B2	binds
B3	binds
B4	no binding

Source: PMC6135852
